# Taken from: PubChem BioAssay AID1259308 (NCATS, 2017)
# Aim: 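Genes whose loss raises luciferase production in HEK293 cells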 (primary screen)
# System: human HEK293 embryonic kidney cells stably expressing firefly luciferase (HEK-CMV-Luc2-Hygro)
# Reagent: single siRNA against human genes, 0.8 pmol siRNA per well
# Timing: 72 h
# Measured: 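Reporter luminescence and viable-cell signal on separate replicate plates, given as percent of non-targeting control and median/MAD z-scores, plus per-cell luciferase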
# Scale: total luciferase, z-score and total luciferase, % of control: higher = more reporter protein produced
# Active means: 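An siRNA counts as active if its total luciferase robust z-score exceeds 3; genes with two or more such siRNAs out of three were retested with fresh siRNAs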
# Meaning of the calls: active = raised luciferase; inactive = no rise
# Here is an unselected part of about 59,000 reagents. In the full data, about 1,510 (2.6%) were called active. 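Calls use total luciferase alone and ignore viability, so some active siRNAs may act by altering cell number.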 The numbers tell different reagents against one gene apart. Further read-outs or replicates are left out here.
Gene,reagent,"total luciferase, z-score","total luciferase, % of control",outcome
ZNF135 (GeneID 7694),1,-0.915,63.7,inactive
ZNF135 (GeneID 7694),2,0.15,84.9,inactive
ZNF135 (GeneID 7694),3,0.202,85.9,inactive
RUVBL2 (GeneID 10856),1,1.23,106,inactive
RUVBL2 (GeneID 10856),2,0.339,88.6,inactive
RUVBL2 (GeneID 10856),3,2.03,122,inactive
GEMIN5 (GeneID 25929),1,-0.525,71.5,inactive
GEMIN5 (GeneID 25929),2,-0.5,71.9,inactive
GEMIN5 (GeneID 25929),3,4.07,163,active
LOC647115 (retired record) (GeneID 647115),1,-0.489,72.2,inactive
LOC647115 (retired record) (GeneID 647115),2,-0.34,75.1,inactive
LOC647115 (retired record) (GeneID 647115),3,0.848,98.8,inactive
ARG1 (GeneID 383),1,0.85,98.8,inactive
ARG1 (GeneID 383),2,0.794,97.7,inactive
ARG1 (GeneID 383),3,-1.56,50.8,inactive
ERAP2 (GeneID 64167),1,1.22,106,inactive
ERAP2 (GeneID 64167),2,-0.465,72.6,inactive
ERAP2 (GeneID 64167),3,1.45,111,inactive
SLC5A2 (GeneID 6524),1,-0.421,73.5,inactive
SLC5A2 (GeneID 6524),2,-1.03,61.3,inactive
SLC5A2 (GeneID 6524),3,-0.423,73.5,inactive
TMLHE (GeneID 55217),1,0.779,97.4,inactive
TMLHE (GeneID 55217),2,0.521,92.2,inactive
TMLHE (GeneID 55217),3,-0.982,62.4,inactive
CD84 (GeneID 8832),1,1.54,113,inactive
CD84 (GeneID 8832),2,0.373,89.3,inactive
CD84 (GeneID 8832),3,-0.478,72.4,inactive
PGBD2 (GeneID 267002),1,-0.535,71.2,inactive
PGBD2 (GeneID 267002),2,-1.98,42.4,inactive
PGBD2 (GeneID 267002),3,0.894,99.7,inactive
ACER3 (GeneID 55331),1,0.119,84.3,inactive
ACER3 (GeneID 55331),2,-1.35,55.1,inactive
ACER3 (GeneID 55331),3,0.721,96.2,inactive
CCDC160 (GeneID 347475),1,-0.434,73.2,inactive
CCDC160 (GeneID 347475),2,0.273,87.3,inactive
CCDC160 (GeneID 347475),3,-0.442,73.1,inactive
KY (GeneID 339855),1,0.51,92,inactive
KY (GeneID 339855),2,-0.838,65.2,inactive
KY (GeneID 339855),3,1.03,102,inactive
RFXANK (GeneID 8625),1,1.01,102,inactive
RFXANK (GeneID 8625),2,-0.491,72.1,inactive
RFXANK (GeneID 8625),3,-0.0893,80.1,inactive
RCSD1 (GeneID 92241),1,-1.56,50.9,inactive
RCSD1 (GeneID 92241),2,2.48,131,inactive
RCSD1 (GeneID 92241),3,-0.817,65.6,inactive
HPS1 (GeneID 3257),1,0.0207,82.3,inactive
HPS1 (GeneID 3257),2,-0.0291,81.3,inactive
HPS1 (GeneID 3257),3,-0.57,70.6,inactive
MPHOSPH10 (GeneID 10199),1,-0.918,63.6,inactive
MPHOSPH10 (GeneID 10199),2,-0.978,62.4,inactive
MPHOSPH10 (GeneID 10199),3,-1.46,52.9,inactive
MAP10 (GeneID 54627),1,-1.53,51.4,inactive
MAP10 (GeneID 54627),2,-0.573,70.5,inactive
MAP10 (GeneID 54627),3,1.13,104,inactive
USP44 (GeneID 84101),1,0.0682,83.2,inactive
USP44 (GeneID 84101),2,0.0484,82.8,inactive
USP44 (GeneID 84101),3,-0.0683,80.5,inactive

In a second layout: 8 of the entries above.
| Gene | reagent | total luciferase, z-score | total luciferase, % of control | outcome |
| --- | --- | --- | --- | --- |
| SLC5A2 (GeneID 6524) | 1 | -0.421 | 73.5 | inactive |
| SLC5A2 (GeneID 6524) | 2 | -1.03 | 61.3 | inactive |
| SLC5A2 (GeneID 6524) | 3 | -0.423 | 73.5 | inactive |
| TMLHE (GeneID 55217) | 1 | 0.779 | 97.4 | inactive |
| TMLHE (GeneID 55217) | 2 | 0.521 | 92.2 | inactive |
| TMLHE (GeneID 55217) | 3 | -0.982 | 62.4 | inactive |
| CD84 (GeneID 8832) | 1 | 1.54 | 113 | inactive |
| CD84 (GeneID 8832) | 2 | 0.373 | 89.3 | inactive |
